A short description of data set [1]: Dye speed in the B&W format (spectral sensitization). The note with it: Table VI, 0.8 mmole/mole Ag, various coating sets; for SR (sensitizing ratio): speed at λ-max minus intrinsic speed at 400 nm plus 200 (log E × 100).
Data set [2] is described as follows: Dye stain in the B&W format. Particulars: Table VII, various coating sets; for Stain (maximum absorbance): at the λmax on the same line, RP X-OMAT processing, 0.8 mmole/mole Ag; for Stain λmax: wavelength of the stain absorbance on the same line.
Data set [3] in a line: Dye stain in the color format. Particulars: Table VIII; for Stain (maximum absorbance): at the stain λmax on the same line, 0.4 mmole/mole Ag; for Stain λmax: wavelength of the stain on the same line.

Molecules are shown by their SMILES. Values joined by “and” are separate entries in the source; they are usually repeats but may differ in a detail not shown here. Identical values can stand only once. Counter-ions that a name gives are not always drawn.

On to `CCC(=Cc1oc2ccc(NC(=O)c3ccc[nH]3)cc2[n+]1CCCS(=O)(=O)O)C=C1Oc2ccc(Br)cc2N1CCCS(=O)(=O)[O-]` [Dye I-34], for which, in data set [1], the “λmax (sensitization) (nm)” value came out at 546 and the “SR (sensitizing ratio)” value was determined as 254.
For `CCC(=Cc1oc2ccc(-n3cccc3)cc2[n+]1CCCS(=O)(=O)O)C=C1Oc2ccc(Cl)cc2N1CCCS(=O)(=O)[O-]` [Dye I-43, Anhydro-5-chloro-9-ethyl-5'-(pyrrol-1-yl)-3,3'-di(3-sulfopropyl)oxacarbocyanine hydroxide potassium salt], in data set [2], the “Stain (maximum absorbance)” value is 36 OD × 10^3 and the “Stain λmax” value is listed as 510. Further, in data set [3] (coating set marked #), the “Stain (maximum absorbance)” value was found to be 22 OD × 10^3 and the “Stain λmax” value amounted to 510.
On to `CCC(=Cc1oc2ccc(NC(=O)c3ccc[nH]3)cc2[n+]1CCCS(=O)(=O)O)C=C1Oc2ccc(Cl)cc2N1CCCS(=O)(=O)[O-]` [Dye I-32], for which the “λmax (sensitization) (nm)” value in data set [1] was found to be 546. Moreover, the “Stain (maximum absorbance)” value in data set [2] was 47 OD × 10^3 and 35 OD × 10^3; in data set [3] (set not marked #) it was 7 OD × 10^3. Also, the “Stain λmax” value is 510 and 490 in data set [2]; 510 in data set [3] (set not marked #).
As to `CCC(=Cc1oc2ccc(-c3ccco3)cc2[n+]1CCCS(=O)(=O)O)C=C1Oc2ccc(F)cc2N1CCCS(=O)(=O)[O-]` [Dye I-49], in data set [2], the “Stain (maximum absorbance)” value stood at 36 OD × 10^3 and the “Stain λmax” value is on record as 510. In addition, in data set [3] (coating set marked #), the “Stain (maximum absorbance)” value came out at 15 OD × 10^3 and the “Stain λmax” value is listed as 510.
Take `CCC(=Cc1oc2ccc(-c3ccc(NC(C)=O)cc3)cc2[n+]1CCCS(=O)(=O)[O-])C=C1Oc2ccc(F)cc2N1CCCS(=O)(=O)O` [Dye I-10]: in data set [1], the “λmax (sensitization) (nm)” value is given as 530 and the “SR (sensitizing ratio)” value is on record as 231. For the same compound, in data set [2], the “Stain (maximum absorbance)” value stood at 50 OD × 10^3 and the “Stain λmax” value was 508.
For `CCC(=Cc1oc2ccc(-c3ccc(NC(C)=O)cc3)cc2[n+]1CCS(=O)(=O)[O-])C=C1Oc2ccc(Cl)cc2N1CCCS(=O)(=O)O` [Dye I-8], the entries for the “Stain (maximum absorbance)” value in data set [2] and in data set [3] (set not marked #) were 50 OD × 10^3 and 13 OD × 10^3, respectively. The “Stain λmax” value in data set [2] is 508; in data set [3] (set not marked #), 510.
As for `CCC(=Cc1oc2ccc(NC(=O)c3ccccc3)cc2[n+]1CCCS(=O)(=O)[O-])C=C1Oc2ccc(Cl)cc2N1CCCS(=O)(=O)O` [Dye I-2], in data set [2], the “Stain (maximum absorbance)” value is 41 OD × 10^3 and 61 OD × 10^3; the “Stain λmax” value is 510 and 550. Also, in data set [3] (set not marked #), the “Stain (maximum absorbance)” value was found to be 12 OD × 10^3 and the “Stain λmax” value stood at 510.
For `CCC(=Cc1oc2ccc(NC(=O)c3cccc(O)c3)cc2[n+]1CCCS(=O)(=O)O)C=C1Oc2ccc(Cl)cc2N1CCCS(=O)(=O)[O-]` [Dye I-38], in data set [1], the “λmax (sensitization) (nm)” value was found to be 544 and the “SR (sensitizing ratio)” value was found to be 254.
As for `CCC(=Cc1oc2ccc(NC(=O)c3ccccc3)cc2[n+]1CCC(C)S(=O)(=O)[O-])C=C1Oc2ccc(F)cc2N1CCCS(=O)(=O)O` (centres unmarked) [Dye I-4], in data set [1], the “λmax (sensitization) (nm)” value was 540 and the “SR (sensitizing ratio)” value worked out at 240. In data set [2], the “Stain (maximum absorbance)” value was determined as 42 OD × 10^3 and the “Stain λmax” value is 505.
Take `CCC(=Cc1oc2ccc(-c3cccc(NC(C)=O)c3)cc2[n+]1CCC(C)S(=O)(=O)[O-])C=C1Oc2ccc(Cl)cc2N1CCCS(=O)(=O)O` (centres unmarked) [Dye I-13]: in data set [1], the “λmax (sensitization) (nm)” value is recorded as 541 and the “SR (sensitizing ratio)” value worked out at 238. Further, in data set [2], the “Stain (maximum absorbance)” value stood at 47 OD × 10^3 and the “Stain λmax” value was 508.
In the same order, the values of `CCC(=Cc1oc2ccc(N3C(=O)C(C)=C(C)C3=O)cc2[n+]1CCCS(=O)(=O)O)C=C1Oc2ccc(N3C(=O)C(C)=C(C)C3=O)cc2N1CCCS(=O)(=O)[O-]` [Dye C-9, reference compound] are 520, 128, 29 OD × 10^3 and 505.
On to `CCC(=Cc1oc2ccc(NC(=O)c3cccs3)cc2[n+]1CCC(C)S(=O)(=O)O)C=C1Oc2ccc(Cl)cc2N1CCCS(=O)(=O)[O-]` (centres unmarked) [Dye I-21], for which, in data set [1], the “λmax (sensitization) (nm)” value is 546 and the “SR (sensitizing ratio)” value amounted to 249. In data set [2], the “Stain (maximum absorbance)” value was 64 OD × 10^3 and 88 OD × 10^3; the “Stain λmax” value was 510 and 543.
`CCC(=Cc1oc2ccc(NC(=O)c3ccco3)cc2[n+]1CCCS(=O)(=O)O)C=C1Oc2ccc(F)cc2N1CCCS(=O)(=O)[O-]` [Dye I-27]: in data set [1], the “λmax (sensitization) (nm)” value is 535 and the “SR (sensitizing ratio)” value is given as 231. Also, in data set [2], the “Stain (maximum absorbance)” value was 40 OD × 10^3 and the “Stain λmax” value was 508.
Regarding `CCC(=Cc1oc2ccc(NC(=O)c3c(O)cccc3O)cc2[n+]1CCCCS(=O)(=O)[O-])C=C1Oc2ccc(Cl)cc2N1CCCS(=O)(=O)O` [Dye I-20], in data set [1], the “λmax (sensitization) (nm)” value stood at 541 and the “SR (sensitizing ratio)” value worked out at 237. For the same compound, in data set [2], the “Stain (maximum absorbance)” value is 27 OD × 10^3 and 30 OD × 10^3; the “Stain λmax” value is 490 and 510.
For the compound `CCC(=Cc1oc2ccc(-c3ccc(NC(C)=O)cc3)cc2[n+]1CCC(C)S(=O)(=O)[O-])C=C1Oc2ccc(Cl)cc2N1CCCS(=O)(=O)O` (centres unmarked) [Dye I-7], in data set [1], the “λmax (sensitization) (nm)” value was found to be 538 and the “SR (sensitizing ratio)” value is reported as 236. In data set [2], the “Stain (maximum absorbance)” value is listed as 51 OD × 10^3 and the “Stain λmax” value is 508.
Consider `CCC(=Cc1oc2ccc(NC(=O)c3ccc[nH]3)cc2[n+]1CCCS(=O)(=O)O)C=C1Oc2ccc(I)cc2N1CCCS(=O)(=O)[O-]` [Dye I-36], for which, in data set [1], the “λmax (sensitization) (nm)” value is listed as 546 and the “SR (sensitizing ratio)” value was determined as 249.
Consider `CCC(=Cc1oc2ccc(NC(=O)c3ccccc3)cc2[n+]1CCC(C)S(=O)(=O)[O-])C=C1Oc2ccc(Cl)cc2N1CCCS(=O)(=O)O` (centres unmarked) [Dye I-1], for which, in data set [1], the “λmax (sensitization) (nm)” value is 542 and the “SR (sensitizing ratio)” value is listed as 249. Also, in data set [2], the “Stain (maximum absorbance)” value was 41 OD × 10^3 and 31 OD × 10^3; the “Stain λmax” value is 510 and 543.
For the compound `CCC(=Cc1oc2ccc(NC(=O)c3cccs3)cc2[n+]1CCS(=O)(=O)O)C=C1Oc2ccc(NC(=O)c3cccs3)cc2N1CCS(=O)(=O)[O-]` [Dye I-22], in data set [1], the “λmax (sensitization) (nm)” value is reported as 495 and the “SR (sensitizing ratio)” value is listed as 231. In data set [2], the “Stain (maximum absorbance)” value is 50 OD × 10^3 and 45 OD × 10^3; the “Stain λmax” value is 490 and 510.
As for `CCC(=Cc1oc2ccc(NC(=O)c3ccccc3)cc2[n+]1CCS(=O)(=O)[O-])C=C1Oc2ccc(NC(=O)c3ccccc3)cc2N1CCS(=O)(=O)O` [Dye I-5], in data set [1], the “λmax (sensitization) (nm)” value is listed as 539 and the “SR (sensitizing ratio)” value was found to be 236. In data set [2], the “Stain (maximum absorbance)” value is 91 OD × 10^3 and 71 OD × 10^3; the “Stain λmax” value is 540 and 510.
Consider `CCC(=Cc1oc2ccc(NC(=O)c3ccc[nH]3)cc2[n+]1CCC(C)S(=O)(=O)O)C=C1Oc2ccc(Cl)cc2N1CCCS(=O)(=O)[O-]` (centres unmarked) [Dye I-31], for which, in data set [1], the “λmax (sensitization) (nm)” value is listed as 548 and the “SR (sensitizing ratio)” value came to 247. Moreover, in data set [2], the “Stain (maximum absorbance)” value is 24 OD × 10^3 and 20 OD × 10^3; the “Stain λmax” value is 510 and 540.
In the case of `CCC(=Cc1oc2ccc(-c3ccc(NC(C)=O)cc3)cc2[n+]1CCS(=O)(=O)[O-])C=C1Oc2ccc(Br)cc2N1CCCS(=O)(=O)O` [Dye I-12], in data set [1], the “λmax (sensitization) (nm)” value was 547 and the “SR (sensitizing ratio)” value came out at 249.

The record behind these values is patent US5492802A, “Dye compounds and photographic elements containing such dyes” (Eastman Kodak Company, priority 1994, dated 1996).
